According to PMC11347313:
Results are given in words; binding and its absence hold for the method and conditions named. Binding seen in cells or lysates may run through a third protein. Some binding calls cover weakened binding; strength is not graded here.

Chains of the proteins cited; added tags and fusions are not shown.
UniProt Q13547: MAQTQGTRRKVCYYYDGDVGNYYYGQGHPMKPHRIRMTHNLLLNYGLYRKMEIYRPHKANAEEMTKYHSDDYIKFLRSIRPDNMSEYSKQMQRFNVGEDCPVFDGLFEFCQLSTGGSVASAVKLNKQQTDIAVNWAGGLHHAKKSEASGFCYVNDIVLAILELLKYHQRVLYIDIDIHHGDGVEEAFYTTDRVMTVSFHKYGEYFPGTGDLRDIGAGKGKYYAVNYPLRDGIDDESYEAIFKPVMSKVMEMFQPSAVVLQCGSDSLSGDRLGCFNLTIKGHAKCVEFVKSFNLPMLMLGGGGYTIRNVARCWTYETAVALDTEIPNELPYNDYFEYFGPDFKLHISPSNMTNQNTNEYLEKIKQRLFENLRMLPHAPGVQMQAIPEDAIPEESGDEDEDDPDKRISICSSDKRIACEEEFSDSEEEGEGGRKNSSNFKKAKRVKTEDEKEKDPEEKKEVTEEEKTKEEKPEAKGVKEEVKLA
UniProt Q92769: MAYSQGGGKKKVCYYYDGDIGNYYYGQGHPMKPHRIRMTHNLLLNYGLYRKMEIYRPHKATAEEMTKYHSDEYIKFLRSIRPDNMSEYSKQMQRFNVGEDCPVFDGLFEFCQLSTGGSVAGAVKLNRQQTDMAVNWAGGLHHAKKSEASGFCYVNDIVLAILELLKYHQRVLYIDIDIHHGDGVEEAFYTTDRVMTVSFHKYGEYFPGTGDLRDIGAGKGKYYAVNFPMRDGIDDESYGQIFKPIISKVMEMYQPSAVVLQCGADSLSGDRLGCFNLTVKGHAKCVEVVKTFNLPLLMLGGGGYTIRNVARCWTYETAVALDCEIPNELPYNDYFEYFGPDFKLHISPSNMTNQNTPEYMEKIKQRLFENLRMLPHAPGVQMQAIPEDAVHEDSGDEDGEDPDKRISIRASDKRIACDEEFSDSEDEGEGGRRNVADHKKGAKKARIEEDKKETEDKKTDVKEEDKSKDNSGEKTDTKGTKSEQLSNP

T1: ZEB1 (zinc finger E-box binding homeobox 1) (human (endogenous in SW480 and HCT116)), P37275
T1 chain: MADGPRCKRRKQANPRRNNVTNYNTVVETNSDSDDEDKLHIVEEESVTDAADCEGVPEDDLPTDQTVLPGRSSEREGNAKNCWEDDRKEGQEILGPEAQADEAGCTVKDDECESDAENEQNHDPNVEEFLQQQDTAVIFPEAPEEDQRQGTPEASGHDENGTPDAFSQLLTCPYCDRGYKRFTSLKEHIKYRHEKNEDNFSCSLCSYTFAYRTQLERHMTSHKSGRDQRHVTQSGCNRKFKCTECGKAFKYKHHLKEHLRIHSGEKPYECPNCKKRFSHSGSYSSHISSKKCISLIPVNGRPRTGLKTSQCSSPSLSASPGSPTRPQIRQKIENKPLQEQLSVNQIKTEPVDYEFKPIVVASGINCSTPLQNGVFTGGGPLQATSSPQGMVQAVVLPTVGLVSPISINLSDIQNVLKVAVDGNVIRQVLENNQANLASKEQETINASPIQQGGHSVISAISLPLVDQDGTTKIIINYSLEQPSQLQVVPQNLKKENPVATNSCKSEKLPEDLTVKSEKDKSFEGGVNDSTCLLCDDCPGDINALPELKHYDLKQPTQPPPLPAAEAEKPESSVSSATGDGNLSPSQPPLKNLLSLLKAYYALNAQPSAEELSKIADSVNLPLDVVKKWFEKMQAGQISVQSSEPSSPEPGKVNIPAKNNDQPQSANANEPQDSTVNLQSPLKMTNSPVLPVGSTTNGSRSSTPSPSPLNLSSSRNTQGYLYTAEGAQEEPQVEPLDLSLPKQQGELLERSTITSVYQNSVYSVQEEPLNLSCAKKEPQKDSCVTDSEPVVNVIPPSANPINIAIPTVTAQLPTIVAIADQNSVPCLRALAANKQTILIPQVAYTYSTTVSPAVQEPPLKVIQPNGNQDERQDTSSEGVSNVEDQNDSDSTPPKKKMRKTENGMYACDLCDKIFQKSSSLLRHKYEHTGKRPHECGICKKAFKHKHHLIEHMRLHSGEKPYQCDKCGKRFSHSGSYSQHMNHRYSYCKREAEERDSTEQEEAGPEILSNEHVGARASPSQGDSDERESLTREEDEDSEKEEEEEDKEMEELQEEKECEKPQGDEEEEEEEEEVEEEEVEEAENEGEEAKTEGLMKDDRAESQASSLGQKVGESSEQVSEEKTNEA

B1: in vitro transcribed/translated ZEB1 (protein, UniProt P37275 1-1124)
chain: T1 chain
B2: MTA3, Q9BTC8 1-594 (protein)
chain: MAANMYRVGDYVYFENSSSNPYLIRRIEELNKTASGNVEAKVVCFYRRRDISNTLIMLADKHAKEIEEESETTVEADLTDKQKHQLKHRELFLSRQYESLPATHIRGKCSVALLNETESVLSYLDKEDTFFYSLVYDPSLKTLLADKGEIRVGPRYQADIPEMLLEGESDEREQSKLEVKVWDPNSPLTDRQIDQFLVVARAVGTFARALDCSSSVRQPSLHMSAAAASRDITLFHAMDTLYRHSYDLSSAISVLVPLGGPVLCRDEMEEWSASEASLFEEALEKYGKDFNDIRQDFLPWKSLTSIIEYYYMWKTTDRYVQQKRLKAAEAESKLKQVYIPTYSKPNPNQISTSNGKPGAVNGAVGTTFQPQNPLLGRACESCYATQSHQWYSWGPPNMQCRLCAICWLYWKKYGGLKMPTQSEEEKLSPSPTTEDPRVRSHVSRQAMQGMPVRNTGSPKSAVKTRQAFFLHTTYFTKFARQVCKNTLRLRQAARRPFVAINYAAIRAEYADRHAELSGSPLKSKSTRKPLACIIGYLEIHPAKKPNVIRSTPSLQTPTTKRMLTTPNHTSLSILGKRNYSHHNGLDELTCCVSD

Legend:
GST-fused HDAC1 = GST-fused HDAC1 (UniProt Q13547); experiment: pull-down; GST fusion proteins from E. coli BL21 incubated with 5-8 uL in vitro transcribed/translated ZEB1 in binding buffer, 37 °C, 30 min, five washes, Western blot; only the target purified
GST-fused HDAC2 = GST-fused HDAC2 (UniProt Q92769); experiment: as above
[1] = target: T1, ZEB1 (zinc finger E-box binding …); experiment: co-IP; whole-cell lysates of SW480 and HCT116 cells, coimmunoprecipitation, Western blotting with antibodies against NuRD components; details: remark: other sources report otherwise

Row | Binder | binding (GST-fused HDAC1) | binding (GST-fused HDAC2) | binding [1]
1 | B1 | binds | binds | 
2 | B2 |  |  | no binding
